Test results as given in the supplement of paper PMC6411743.
± gives the standard deviation of the averaged measurements. Only a part is listed here, and it is no random draw.

Chains of the proteins cited; added tags and fusions are not shown. Lines headed by an entry give the natural chain unless they say otherwise; changes in a name come on top.
UniProt P00558: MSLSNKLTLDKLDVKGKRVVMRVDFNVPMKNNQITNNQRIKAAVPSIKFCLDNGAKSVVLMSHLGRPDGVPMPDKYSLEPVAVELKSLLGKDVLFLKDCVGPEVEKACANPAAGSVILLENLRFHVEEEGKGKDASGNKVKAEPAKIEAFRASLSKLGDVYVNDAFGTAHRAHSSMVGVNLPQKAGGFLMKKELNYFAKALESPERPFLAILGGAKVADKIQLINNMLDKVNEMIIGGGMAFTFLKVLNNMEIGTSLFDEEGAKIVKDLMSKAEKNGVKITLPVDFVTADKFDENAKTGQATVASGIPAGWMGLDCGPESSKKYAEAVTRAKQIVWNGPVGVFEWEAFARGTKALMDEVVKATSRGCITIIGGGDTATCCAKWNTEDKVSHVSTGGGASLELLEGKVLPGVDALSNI
UniProt P13716: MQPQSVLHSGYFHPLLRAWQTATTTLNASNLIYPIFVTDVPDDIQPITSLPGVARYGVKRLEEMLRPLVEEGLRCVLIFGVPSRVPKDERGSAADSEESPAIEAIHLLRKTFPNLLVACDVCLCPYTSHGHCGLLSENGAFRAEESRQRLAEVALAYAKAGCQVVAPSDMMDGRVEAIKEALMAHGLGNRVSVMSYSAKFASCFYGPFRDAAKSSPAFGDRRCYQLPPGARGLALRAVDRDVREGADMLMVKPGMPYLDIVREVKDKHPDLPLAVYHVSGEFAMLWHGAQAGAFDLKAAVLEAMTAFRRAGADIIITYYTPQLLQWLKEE
UniProt P10586, whole entry: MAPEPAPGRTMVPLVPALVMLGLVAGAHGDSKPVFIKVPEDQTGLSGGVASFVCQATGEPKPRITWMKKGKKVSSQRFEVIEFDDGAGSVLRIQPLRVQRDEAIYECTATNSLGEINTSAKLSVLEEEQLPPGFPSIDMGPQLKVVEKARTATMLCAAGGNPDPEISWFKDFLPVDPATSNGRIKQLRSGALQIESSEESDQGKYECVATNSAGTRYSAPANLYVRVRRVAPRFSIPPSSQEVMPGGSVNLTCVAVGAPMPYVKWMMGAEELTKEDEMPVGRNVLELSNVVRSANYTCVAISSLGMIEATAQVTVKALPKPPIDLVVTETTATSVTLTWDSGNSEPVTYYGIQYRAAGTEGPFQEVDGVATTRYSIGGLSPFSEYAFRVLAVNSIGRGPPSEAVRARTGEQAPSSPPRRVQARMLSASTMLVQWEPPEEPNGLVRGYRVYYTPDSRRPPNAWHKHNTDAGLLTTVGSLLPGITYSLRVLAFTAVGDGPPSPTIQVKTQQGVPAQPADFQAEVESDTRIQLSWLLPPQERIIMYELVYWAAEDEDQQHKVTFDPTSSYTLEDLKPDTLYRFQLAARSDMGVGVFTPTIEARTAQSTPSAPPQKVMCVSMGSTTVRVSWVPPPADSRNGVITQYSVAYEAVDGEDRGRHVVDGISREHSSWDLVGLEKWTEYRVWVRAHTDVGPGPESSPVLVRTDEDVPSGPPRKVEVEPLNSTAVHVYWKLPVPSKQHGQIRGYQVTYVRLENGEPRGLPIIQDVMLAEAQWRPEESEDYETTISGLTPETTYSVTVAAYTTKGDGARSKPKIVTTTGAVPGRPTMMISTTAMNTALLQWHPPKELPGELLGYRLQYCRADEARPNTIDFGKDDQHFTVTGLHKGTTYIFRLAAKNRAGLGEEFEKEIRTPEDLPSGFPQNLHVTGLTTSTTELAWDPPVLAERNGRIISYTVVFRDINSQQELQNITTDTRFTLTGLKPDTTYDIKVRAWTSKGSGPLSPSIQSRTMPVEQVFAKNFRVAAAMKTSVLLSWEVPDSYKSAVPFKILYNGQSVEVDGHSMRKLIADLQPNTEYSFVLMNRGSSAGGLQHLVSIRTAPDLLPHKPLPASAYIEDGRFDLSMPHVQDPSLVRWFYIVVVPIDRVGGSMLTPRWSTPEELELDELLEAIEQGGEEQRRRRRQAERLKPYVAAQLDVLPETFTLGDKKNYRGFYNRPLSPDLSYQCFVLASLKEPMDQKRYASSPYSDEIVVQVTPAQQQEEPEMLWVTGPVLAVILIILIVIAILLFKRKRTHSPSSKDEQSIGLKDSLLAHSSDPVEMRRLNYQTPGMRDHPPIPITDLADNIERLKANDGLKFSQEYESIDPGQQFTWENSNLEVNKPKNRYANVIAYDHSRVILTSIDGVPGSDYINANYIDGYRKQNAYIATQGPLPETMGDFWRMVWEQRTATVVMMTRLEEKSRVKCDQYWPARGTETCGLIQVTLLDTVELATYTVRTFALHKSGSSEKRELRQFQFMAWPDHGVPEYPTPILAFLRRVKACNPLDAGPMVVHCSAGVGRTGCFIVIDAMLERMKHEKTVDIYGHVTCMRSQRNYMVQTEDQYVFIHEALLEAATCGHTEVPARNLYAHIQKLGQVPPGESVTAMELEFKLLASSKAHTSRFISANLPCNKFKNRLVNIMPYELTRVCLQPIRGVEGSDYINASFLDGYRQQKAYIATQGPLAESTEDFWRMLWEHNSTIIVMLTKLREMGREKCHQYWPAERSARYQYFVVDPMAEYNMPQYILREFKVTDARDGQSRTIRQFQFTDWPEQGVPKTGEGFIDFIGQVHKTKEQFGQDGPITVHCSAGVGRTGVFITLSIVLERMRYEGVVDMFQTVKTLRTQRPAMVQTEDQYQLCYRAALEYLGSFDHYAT
UniProt P01137, whole entry: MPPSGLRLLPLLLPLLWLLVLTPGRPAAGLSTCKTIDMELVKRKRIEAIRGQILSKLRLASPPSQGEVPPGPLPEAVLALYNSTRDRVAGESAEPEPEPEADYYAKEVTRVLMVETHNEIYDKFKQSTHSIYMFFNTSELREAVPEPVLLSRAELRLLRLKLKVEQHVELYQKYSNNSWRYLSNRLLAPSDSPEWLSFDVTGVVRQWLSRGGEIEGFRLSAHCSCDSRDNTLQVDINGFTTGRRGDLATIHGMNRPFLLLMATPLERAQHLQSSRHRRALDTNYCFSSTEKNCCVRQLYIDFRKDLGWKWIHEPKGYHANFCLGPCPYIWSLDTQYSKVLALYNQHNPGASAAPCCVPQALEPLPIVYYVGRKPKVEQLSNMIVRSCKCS
UniProt P13667: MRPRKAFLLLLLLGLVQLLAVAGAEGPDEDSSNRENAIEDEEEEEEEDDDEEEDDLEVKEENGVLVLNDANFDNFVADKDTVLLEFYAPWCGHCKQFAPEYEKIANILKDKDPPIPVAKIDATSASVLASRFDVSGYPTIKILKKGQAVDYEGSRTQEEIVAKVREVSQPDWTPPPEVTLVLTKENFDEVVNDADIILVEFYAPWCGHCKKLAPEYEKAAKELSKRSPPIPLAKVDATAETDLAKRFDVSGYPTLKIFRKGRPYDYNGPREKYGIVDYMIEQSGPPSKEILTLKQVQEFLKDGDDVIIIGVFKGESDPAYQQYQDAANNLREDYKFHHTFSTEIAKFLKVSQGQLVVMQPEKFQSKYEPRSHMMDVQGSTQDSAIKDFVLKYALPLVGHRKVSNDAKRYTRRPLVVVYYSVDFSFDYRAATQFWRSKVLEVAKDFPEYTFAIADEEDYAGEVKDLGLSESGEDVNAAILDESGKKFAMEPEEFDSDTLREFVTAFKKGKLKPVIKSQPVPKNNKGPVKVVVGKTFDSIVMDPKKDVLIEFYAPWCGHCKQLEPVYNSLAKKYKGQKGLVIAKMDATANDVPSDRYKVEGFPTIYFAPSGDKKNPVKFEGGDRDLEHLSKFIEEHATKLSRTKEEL
UniProt P0C0S5, whole entry, looked up: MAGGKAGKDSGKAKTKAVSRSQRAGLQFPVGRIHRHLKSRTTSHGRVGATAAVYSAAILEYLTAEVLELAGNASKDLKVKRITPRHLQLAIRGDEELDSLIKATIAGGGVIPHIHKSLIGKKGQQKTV
UniProt Q71UI9, whole entry, looked up: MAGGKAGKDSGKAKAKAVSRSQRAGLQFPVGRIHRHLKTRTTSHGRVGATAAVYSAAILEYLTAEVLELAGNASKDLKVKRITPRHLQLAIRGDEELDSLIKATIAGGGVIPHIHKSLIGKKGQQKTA
UniProt Q8IVS2: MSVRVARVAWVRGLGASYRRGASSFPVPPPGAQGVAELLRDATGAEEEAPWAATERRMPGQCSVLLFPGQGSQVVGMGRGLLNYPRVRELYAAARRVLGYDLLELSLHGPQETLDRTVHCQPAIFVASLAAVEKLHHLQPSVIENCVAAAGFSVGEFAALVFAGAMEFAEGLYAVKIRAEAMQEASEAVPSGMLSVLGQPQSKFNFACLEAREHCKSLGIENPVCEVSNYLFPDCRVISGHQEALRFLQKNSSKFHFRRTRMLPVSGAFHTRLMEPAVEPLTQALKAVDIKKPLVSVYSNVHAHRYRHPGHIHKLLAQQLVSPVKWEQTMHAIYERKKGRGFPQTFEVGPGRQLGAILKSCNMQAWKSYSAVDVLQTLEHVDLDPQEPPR
UniProt P11171, whole entry: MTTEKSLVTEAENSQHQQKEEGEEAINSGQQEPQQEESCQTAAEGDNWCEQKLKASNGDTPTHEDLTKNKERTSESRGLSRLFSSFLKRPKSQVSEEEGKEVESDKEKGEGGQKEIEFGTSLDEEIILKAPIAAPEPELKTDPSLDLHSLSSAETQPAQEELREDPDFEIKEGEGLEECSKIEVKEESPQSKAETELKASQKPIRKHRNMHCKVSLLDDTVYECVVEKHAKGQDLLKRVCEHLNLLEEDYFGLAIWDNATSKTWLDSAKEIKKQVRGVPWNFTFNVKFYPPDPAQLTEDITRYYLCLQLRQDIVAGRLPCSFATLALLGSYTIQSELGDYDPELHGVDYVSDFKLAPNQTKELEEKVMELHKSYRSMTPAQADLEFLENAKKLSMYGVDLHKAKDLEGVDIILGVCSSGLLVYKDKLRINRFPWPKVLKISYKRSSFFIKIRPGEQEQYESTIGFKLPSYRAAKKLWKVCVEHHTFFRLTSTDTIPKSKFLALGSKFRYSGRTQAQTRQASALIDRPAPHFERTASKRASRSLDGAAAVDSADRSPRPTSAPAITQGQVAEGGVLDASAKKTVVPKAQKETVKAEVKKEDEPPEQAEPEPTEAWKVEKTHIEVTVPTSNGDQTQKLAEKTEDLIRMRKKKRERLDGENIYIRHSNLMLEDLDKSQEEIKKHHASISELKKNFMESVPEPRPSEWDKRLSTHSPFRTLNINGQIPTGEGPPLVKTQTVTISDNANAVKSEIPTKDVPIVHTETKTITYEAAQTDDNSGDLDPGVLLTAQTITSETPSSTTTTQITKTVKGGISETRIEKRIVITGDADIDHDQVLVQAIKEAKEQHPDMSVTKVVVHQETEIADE
UniProt P04921: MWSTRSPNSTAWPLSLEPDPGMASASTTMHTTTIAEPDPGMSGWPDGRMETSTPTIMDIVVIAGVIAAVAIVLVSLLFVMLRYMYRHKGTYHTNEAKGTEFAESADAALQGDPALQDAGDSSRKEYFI
UniProt P16885: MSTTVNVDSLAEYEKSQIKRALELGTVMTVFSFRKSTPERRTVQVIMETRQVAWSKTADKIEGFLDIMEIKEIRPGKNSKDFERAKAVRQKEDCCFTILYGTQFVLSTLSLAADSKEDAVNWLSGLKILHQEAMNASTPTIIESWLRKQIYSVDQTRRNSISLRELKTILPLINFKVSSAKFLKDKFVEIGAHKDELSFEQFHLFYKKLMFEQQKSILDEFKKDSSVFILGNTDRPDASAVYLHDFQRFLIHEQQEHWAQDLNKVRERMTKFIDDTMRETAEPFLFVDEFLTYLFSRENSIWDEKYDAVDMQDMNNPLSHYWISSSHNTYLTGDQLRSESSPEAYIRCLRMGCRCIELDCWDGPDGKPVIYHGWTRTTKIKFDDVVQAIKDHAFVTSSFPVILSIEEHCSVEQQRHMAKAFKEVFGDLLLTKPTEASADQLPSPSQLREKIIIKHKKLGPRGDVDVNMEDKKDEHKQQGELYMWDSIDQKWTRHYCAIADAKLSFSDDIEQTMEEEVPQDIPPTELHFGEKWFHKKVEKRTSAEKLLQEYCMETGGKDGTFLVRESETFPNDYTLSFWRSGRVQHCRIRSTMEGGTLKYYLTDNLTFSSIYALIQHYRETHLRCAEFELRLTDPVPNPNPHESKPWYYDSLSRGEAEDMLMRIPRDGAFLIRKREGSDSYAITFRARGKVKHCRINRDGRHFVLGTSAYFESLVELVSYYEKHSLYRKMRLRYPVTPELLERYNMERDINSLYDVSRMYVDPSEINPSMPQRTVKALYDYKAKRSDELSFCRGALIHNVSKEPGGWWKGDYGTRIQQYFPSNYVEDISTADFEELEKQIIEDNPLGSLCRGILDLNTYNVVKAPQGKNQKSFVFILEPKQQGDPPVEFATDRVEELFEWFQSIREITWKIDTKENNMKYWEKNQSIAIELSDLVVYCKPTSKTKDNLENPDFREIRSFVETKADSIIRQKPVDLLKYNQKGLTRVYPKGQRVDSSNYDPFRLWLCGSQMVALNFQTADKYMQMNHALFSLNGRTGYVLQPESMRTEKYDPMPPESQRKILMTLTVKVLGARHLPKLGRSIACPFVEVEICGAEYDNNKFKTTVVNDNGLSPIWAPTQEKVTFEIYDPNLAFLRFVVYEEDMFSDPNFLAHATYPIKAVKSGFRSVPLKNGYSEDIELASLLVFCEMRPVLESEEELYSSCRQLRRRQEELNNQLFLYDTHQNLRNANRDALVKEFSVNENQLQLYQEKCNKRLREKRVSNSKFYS

Compound: Nc1ncnc2c1ncn2[C@@H]1O[C@H](COP(=O)(O)OP(=O)(O)NP(=O)(O)O)[C@@H](O)[C@H]1O [adenylyl imidodiphosphate]
Experiment: NP40-soluble protein abundance relative to vehicle (solubility fold change) (ratio); higher = more soluble protein in presence of AMP-PNP
Outline: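 In three independent experiments, Jurkat crude lysate made by Dounce homogenisation was treated for 10 min at room temperature and then 3 min at 37 °C with eight concentrations ranging from 0.1 to 10 mM. It was then solubilised with 0.8% NP40 plus benzonase for 60 min at 4 °C and ultracentrifuged. The supernatant was TMT-labelled for LC-MS/MS, and each value is the fold change against the detergent-processed vehicle for the same replicate, using vsn-normalised intensities.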

Target	NP40-soluble protein abundance (concentration: 1mM)	NP40-soluble protein abundance (concentration: 2mM)	NP40-soluble protein abundance (concentration: 4mM)	NP40-soluble protein abundance (concentration: 6mM)	NP40-soluble protein abundance (concentration: 8mM)	NP40-soluble protein abundance (concentration: 10mM)
HEXB (UniProt P07686)	1.02 ± 0.039	1.02 ± 0.077	1 ± 0.053	1.01 ± 0.054	1.01 ± 0.026	1.01 ± 0.031
UniProt P13473-2	0.963 ± 0.026	0.998 ± 0.037	0.947 ± 0.03	0.965 ± 0.017	0.932 ± 0.029	0.928 ± 0.046
UniProt P10398 and related entries	1.1 ± 0.036	1.07 ± 0.068	1.12 ± 0.061	1.08 ± 0.14	1.07 ± 0.076	1.08 ± 0.082
PGK1 (UniProt P00558)	0.94 ± 0.17	0.938 ± 0.15	0.981 ± 0.12	0.831 ± 0.071	0.989 ± 0.097	0.872 ± 0.11
UniProt P08559 and related entries	0.979 ± 0.13	0.94 ± 0.13	0.925 ± 0.13	0.923 ± 0.17	0.95 ± 0.12	0.965 ± 0.15
CAPN1 (UniProt P07384)	0.976 ± 0.015	0.904 ± 0.095	0.968 ± 0.025	0.96 ± 0.019	0.978 ± 0.023	0.932 ± 0.034
UniProt P13716 and related entries	1.02 ± 0.021	0.976 ± 0.045	1.03 ± 0.04	1.02 ± 0.056	1.01 ± 0.065	1.02 ± 0.05
UQCRH (UniProt P07919)	0.962 ± 0.017	0.96 ± 0.03	0.937 ± 0.0064	0.9362 ± 0.005	0.909 ± 0.046	0.945 ± 0.023
GAPDH (UniProt P04406)	1.05 ± 0.032	0.987 ± 0.022	0.9925 ± 0.0085	0.9939 ± 0.006	0.9951 ± 0.0052	1.02 ± 0.021
UniProt P09543 and related entries	1.01 ± 0.022	0.965 ± 0.053	0.9767 ± 0.0046	0.973 ± 0.025	0.966 ± 0.013	0.959 ± 0.015
UniProt P15882 and related entries	0.993 ± 0.023	0.959 ± 0.055	0.965 ± 0.01	0.971 ± 0.02	0.934 ± 0.022	0.925 ± 0.026
CST3 (UniProt P01034)	1.006 ± 0.0046	1.03 ± 0.012	0.9835 ± 0.0016	0.9858 ± 0.0014	0.995 ± 0.014	0.984 ± 0.018
UMPS (UniProt P11172)	0.99 ± 0.028	0.912 ± 0.093	0.954 ± 0.024	0.96 ± 0.036	0.969 ± 0.025	0.919 ± 0.049
UniProt P13674-2|P13674	1.01 ± 0.033	1.03 ± 0.014	1 ± 0.0065	0.985 ± 0.03	0.963 ± 0.011	0.988 ± 0.024
SRF (UniProt P11831)	1.02 ± 0.024	1.05 ± 0.057	1.02 ± 0.045	1.03 ± 0.048	1.04 ± 0.059	1.05 ± 0.044
GAA (UniProt P10253)	0.998 ± 0.011	0.992 ± 0.012	1.02 ± 0.022	1.02 ± 0.047	1.04 ± 0.014	1.04 ± 0.031
CTSD (UniProt P07339)	0.995 ± 0.051	0.973 ± 0.059	0.993 ± 0.072	1.08 ± 0.099	1.09 ± 0.093	1.09 ± 0.091
UniProt P10586 and related entries	0.989 ± 0.021	0.9746 ± 0.0047	0.998 ± 0.015	0.99 ± 0.018	0.9966 ± 0.0094	0.98 ± 0.03
RALA (UniProt P11233)	1.04 ± 0.019	0.987 ± 0.062	1 ± 0.057	1 ± 0.013	0.979 ± 0.012	0.968 ± 0.053
SNAP29 (UniProt O95721)	1.01 ± 0.063	1.07 ± 0.084	1.01 ± 0.086	0.964 ± 0.018	0.978 ± 0.031	0.968 ± 0.072

Full records, quoted from the list.
CTSD (UniProt P07339) reads NP40-soluble protein abundance (concentration: 1mM): 0.995 ± 0.051; NP40-soluble protein abundance (concentration: 2mM): 0.973 ± 0.059; NP40-soluble protein abundance (concentration: 4mM): 0.993 ± 0.072; NP40-soluble protein abundance (concentration: 6mM): 1.08 ± 0.099; NP40-soluble protein abundance (concentration: 8mM): 1.09 ± 0.093; NP40-soluble protein abundance (concentration: 10mM): 1.09 ± 0.091
SRF (UniProt P11831) reads NP40-soluble protein abundance (concentration: 1mM): 1.02 ± 0.024; NP40-soluble protein abundance (concentration: 2mM): 1.05 ± 0.057; NP40-soluble protein abundance (concentration: 4mM): 1.02 ± 0.045; NP40-soluble protein abundance (concentration: 6mM): 1.03 ± 0.048; NP40-soluble protein abundance (concentration: 8mM): 1.04 ± 0.059; NP40-soluble protein abundance (concentration: 10mM): 1.05 ± 0.044
UniProt P13716 and related entries reads NP40-soluble protein abundance (concentration: 1mM): 1.02 ± 0.021; NP40-soluble protein abundance (concentration: 2mM): 0.976 ± 0.045; NP40-soluble protein abundance (concentration: 4mM): 1.03 ± 0.04; NP40-soluble protein abundance (concentration: 6mM): 1.02 ± 0.056; NP40-soluble protein abundance (concentration: 8mM): 1.01 ± 0.065; NP40-soluble protein abundance (concentration: 10mM): 1.02 ± 0.05
UniProt P10398 and related entries reads NP40-soluble protein abundance (concentration: 1mM): 1.1 ± 0.036; NP40-soluble protein abundance (concentration: 2mM): 1.07 ± 0.068; NP40-soluble protein abundance (concentration: 4mM): 1.12 ± 0.061; NP40-soluble protein abundance (concentration: 6mM): 1.08 ± 0.14; NP40-soluble protein abundance (concentration: 8mM): 1.07 ± 0.076; NP40-soluble protein abundance (concentration: 10mM): 1.08 ± 0.082

Following part

Target	NP40-soluble protein abundance (concentration: 1mM)	NP40-soluble protein abundance (concentration: 2mM)	NP40-soluble protein abundance (concentration: 4mM)	NP40-soluble protein abundance (concentration: 6mM)	NP40-soluble protein abundance (concentration: 8mM)	NP40-soluble protein abundance (concentration: 10mM)
UniProt P16930 and related entries	0.978 ± 0.039	0.891 ± 0.07	0.946 ± 0.01	0.965 ± 0.036	0.975 ± 0.021	0.932 ± 0.029
UniProt P15529-2|P15529-3|P15529-4|P15529-5|P15529-6|P15529-7	1.004 ± 0.0032	1.09 ± 0.14	1 ± 0.037	1.05 ± 0.029	0.991 ± 0.033	1.06 ± 0.058
IGLL1 (UniProt P15814)	0.995 ± 0.054	1.015 ± 0.01	1.03 ± 0.027	1 ± 0.02	1.02 ± 0.045	0.977 ± 0.02
TGFB1 (UniProt P01137)	0.9779 ± 0.0078	0.9775 ± 0.0022	0.971 ± 0.015	0.992 ± 0.014	0.995 ± 0.017	0.9831 ± 0.008
H1F0 (UniProt P07305)	1.05 ± 0.021	1.05 ± 0.021	1.03 ± 0.016	1.074 ± 0.0051	1.01 ± 0.021	1.0745 ± 0.00041
PDIA4 (UniProt P13667)	0.983 ± 0.013	1 ± 0.023	0.934 ± 0.017	0.972 ± 0.022	0.928 ± 0.022	0.936 ± 0.042
GOT2 (UniProt P00505)	0.981 ± 0.02	0.909 ± 0.052	0.949 ± 0.015	1 ± 0.051	1.01 ± 0.043	0.984 ± 0.03
LGALS1 (UniProt P09382)	1.029 ± 0.0027	1.03 ± 0.011	0.984 ± 0.021	1 ± 0.037	0.998 ± 0.052	0.975 ± 0.045
UniProt P12931 and related entries	0.984 ± 0.033	0.942 ± 0.074	0.987 ± 0.021	0.964 ± 0.019	1.01 ± 0.023	0.96 ± 0.023
UROS (UniProt P10746)	1.04 ± 0.012	1.03 ± 0.015	1 ± 0.045	0.99 ± 0.029	0.975 ± 0.051	0.982 ± 0.075
UniProt P07954-2	0.988 ± 0.009	0.968 ± 0.021	0.982 ± 0.014	1.01 ± 0.024	0.998 ± 0.018	1.01 ± 0.02
HIST1H1D (UniProt P16402)	1.04 ± 0.07	1.14 ± 0.12	1.13 ± 0.12	1.15 ± 0.051	1.2 ± 0.14	1.32 ± 0.015
UniProt P06127	1.04 ± 0.015	1.1 ± 0.069	1.06 ± 0.021	1.023 ± 0.0075	1.01 ± 0.021	1.07 ± 0.019
LCP1 (UniProt P13796)	0.939 ± 0.066	0.926 ± 0.018	0.908 ± 0.059	0.936 ± 0.018	0.978 ± 0.024	0.913 ± 0.035
HMGN1 (UniProt P05114)	1.23 ± 0.1	1.36 ± 0.18	1.28 ± 0.074	1.57 ± 0.15	1.54 ± 0.16	1.89 ± 0.36
UniProt P06126	0.992 ± 0.037	0.977 ± 0.045	0.995 ± 0.034	0.986 ± 0.038	1.03 ± 0.011	1.02 ± 0.029
HSPA4L (UniProt O95757)	1.03 ± 0.03	1.04 ± 0.036	1.01 ± 0.012	1.01 ± 0.024	0.987 ± 0.037	0.995 ± 0.027
UniProt P00491	1 ± 0.047	0.924 ± 0.038	0.988 ± 0.024	0.998 ± 0.047	1.03 ± 0.033	0.961 ± 0.033
UniProt O96028 and related entries	1.08 ± 0.034	1.16 ± 0.026	1.23 ± 0.033	1.32 ± 0.044	1.35 ± 0.03	1.47 ± 0.059
UniProt P11177 and related entries	0.994 ± 0.14	0.99 ± 0.074	0.956 ± 0.11	0.918 ± 0.14	0.944 ± 0.099	0.974 ± 0.12

Target	NP40-soluble protein abundance (concentration: 1mM)	NP40-soluble protein abundance (concentration: 2mM)	NP40-soluble protein abundance (concentration: 4mM)	NP40-soluble protein abundance (concentration: 6mM)	NP40-soluble protein abundance (concentration: 8mM)	NP40-soluble protein abundance (concentration: 10mM)
UniProt O95758-6|O95758-1	1 ± 0.041	1.04 ± 0.074	1.01 ± 0.063	0.99 ± 0.047	1.01 ± 0.044	1 ± 0.064
P15531-2|P22392-2|Q32Q12 (UniProt Q32Q12+P22392+P15531)	0.979 ± 0.053	0.981 ± 0.14	0.967 ± 0.13	1.17 ± 0.25	1.2 ± 0.16	1.17 ± 0.23
P0C0S5 and related entries (UniProt Q71UI9+P0C0S5)	0.922 ± 0.051	0.957 ± 0.046	0.936 ± 0.019	1.01 ± 0.031	1.07 ± 0.015	1.1 ± 0.037
TFRC (UniProt P02786)	0.995 ± 0.06	0.984 ± 0.058	0.971 ± 0.057	1.09 ± 0.072	1.06 ± 0.043	1.08 ± 0.034
UniProt P11274 and related entries	1.01 ± 0.011	0.986 ± 0.028	1.01 ± 0.017	0.974 ± 0.027	0.981 ± 0.022	0.956 ± 0.018
UniProt P05165 and related entries	1.03 ± 0.035	0.998 ± 0.053	0.978 ± 0.019	0.961 ± 0.047	0.932 ± 0.069	0.946 ± 0.064
P00403 and related entries (UniProt Q8IVS2)	0.922 ± 0.029	0.782 ± 0.16	0.88 ± 0.03	0.893 ± 0.029	0.929 ± 0.021	0.873 ± 0.041
P4HB (UniProt P07237)	1.02 ± 0.031	1.02 ± 0.014	0.976 ± 0.043	0.984 ± 0.028	0.955 ± 0.037	0.945 ± 0.057
UniProt P07992 and related entries	0.944 ± 0.079	0.921 ± 0.07	0.926 ± 0.093	0.954 ± 0.096	0.97 ± 0.1	0.948 ± 0.073
UniProt P09488 and related entries	0.944 ± 0.031	0.913 ± 0.032	0.968 ± 0.032	1.06 ± 0.1	1.07 ± 0.061	1.02 ± 0.035
EEF2 (UniProt P13639)	0.96 ± 0.025	0.92 ± 0.036	0.939 ± 0.02	0.966 ± 0.022	0.975 ± 0.019	0.9553 ± 0.0019
P0CAP2 and related entries (UniProt Q6EEV4+P0CAP2)	0.993 ± 0.062	1.0822 ± 0.00086	0.993 ± 0.053	0.935 ± 0.011	0.935 ± 0.017	0.963 ± 0.015
HPRT1 (UniProt P00492)	0.978 ± 0.027	0.881 ± 0.074	0.997 ± 0.025	0.981 ± 0.099	1.06 ± 0.091	1 ± 0.1
QDPR (UniProt P09417)	0.985 ± 0.017	0.975 ± 0.015	0.9678 ± 0.0091	1.02 ± 0.036	0.991 ± 0.024	1.02 ± 0.044
UniProt P08243 and related entries	1.01 ± 0.049	0.923 ± 0.052	0.974 ± 0.031	0.952 ± 0.026	0.973 ± 0.018	0.919 ± 0.032
UniProt P15056 and related entries	1.04 ± 0.036	1.02 ± 0.011	0.971 ± 0.022	1.01 ± 0.056	0.994 ± 0.018	0.976 ± 0.013
UniProt P11171 and related entries	1.015 ± 0.008	1.015 ± 0.0095	1.01 ± 0.035	0.986 ± 0.012	0.972 ± 0.017	0.98 ± 0.03
UniProt P04921 and related entries	1.09 ± 0.078	1.17 ± 0.059	1.068 ± 0.0068	1.17 ± 0.068	1.09 ± 0.062	1.12 ± 0.032
TXN (UniProt P10599)	1.01 ± 0.038	1.04 ± 0.07	0.981 ± 0.053	0.9967 ± 0.0035	0.966 ± 0.043	0.954 ± 0.051
PLCG2 (UniProt P16885)	0.987 ± 0.017	0.901 ± 0.13	0.958 ± 0.041	0.915 ± 0.019	0.951 ± 0.044	0.895 ± 0.045
